Measurements published in PubChem BioAssay (EPA / NIEHS).
The inconclusive results got no clear call from the source; some entries with a clear call stand among them for comparison. For some assays here: Where the call is inconclusive, the potency comes from a doubtful curve fit. Activity calls are given as the source filed them. The calls were made as follows, unless noted: active = hit-call score of the fitted dose curve at least 0.9, where 1 is the maximum; inconclusive = response in the unintended direction; inactive = score below 0.9.

Sequences of proteins named here, by UniProt entry; tags and fusion partners are left off. A change or cut given only in a name is not applied to a line headed by its entry.
UniProt Q9UNQ0: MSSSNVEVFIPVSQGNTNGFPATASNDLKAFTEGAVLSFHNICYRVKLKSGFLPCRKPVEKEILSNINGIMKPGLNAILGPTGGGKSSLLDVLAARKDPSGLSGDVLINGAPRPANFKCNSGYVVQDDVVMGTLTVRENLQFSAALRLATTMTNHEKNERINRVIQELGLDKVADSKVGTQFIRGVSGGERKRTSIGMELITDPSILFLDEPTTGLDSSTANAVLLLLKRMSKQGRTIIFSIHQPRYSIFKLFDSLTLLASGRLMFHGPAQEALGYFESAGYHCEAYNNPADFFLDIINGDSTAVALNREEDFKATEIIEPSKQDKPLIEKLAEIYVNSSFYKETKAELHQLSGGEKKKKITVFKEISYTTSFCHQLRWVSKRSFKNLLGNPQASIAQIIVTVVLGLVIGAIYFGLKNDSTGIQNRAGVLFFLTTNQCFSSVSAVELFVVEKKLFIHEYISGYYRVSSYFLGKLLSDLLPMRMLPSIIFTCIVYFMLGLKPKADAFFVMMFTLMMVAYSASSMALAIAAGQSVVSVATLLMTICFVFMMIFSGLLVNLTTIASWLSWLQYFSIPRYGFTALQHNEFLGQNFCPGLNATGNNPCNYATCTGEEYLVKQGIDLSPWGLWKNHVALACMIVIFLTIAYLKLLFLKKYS
UniProt P08684, whole entry, looked up: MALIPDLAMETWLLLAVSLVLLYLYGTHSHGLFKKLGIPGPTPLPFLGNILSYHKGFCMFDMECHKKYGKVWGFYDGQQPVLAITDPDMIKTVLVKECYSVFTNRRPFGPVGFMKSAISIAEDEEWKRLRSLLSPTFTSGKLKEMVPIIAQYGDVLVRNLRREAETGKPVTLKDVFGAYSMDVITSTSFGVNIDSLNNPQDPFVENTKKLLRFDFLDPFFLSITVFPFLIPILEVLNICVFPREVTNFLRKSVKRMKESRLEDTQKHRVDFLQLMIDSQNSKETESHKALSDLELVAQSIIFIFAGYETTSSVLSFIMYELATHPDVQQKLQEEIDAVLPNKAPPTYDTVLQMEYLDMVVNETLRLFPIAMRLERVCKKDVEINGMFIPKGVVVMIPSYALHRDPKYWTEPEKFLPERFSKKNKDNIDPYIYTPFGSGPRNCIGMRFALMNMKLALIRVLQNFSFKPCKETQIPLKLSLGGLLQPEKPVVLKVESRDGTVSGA
UniProt P04406: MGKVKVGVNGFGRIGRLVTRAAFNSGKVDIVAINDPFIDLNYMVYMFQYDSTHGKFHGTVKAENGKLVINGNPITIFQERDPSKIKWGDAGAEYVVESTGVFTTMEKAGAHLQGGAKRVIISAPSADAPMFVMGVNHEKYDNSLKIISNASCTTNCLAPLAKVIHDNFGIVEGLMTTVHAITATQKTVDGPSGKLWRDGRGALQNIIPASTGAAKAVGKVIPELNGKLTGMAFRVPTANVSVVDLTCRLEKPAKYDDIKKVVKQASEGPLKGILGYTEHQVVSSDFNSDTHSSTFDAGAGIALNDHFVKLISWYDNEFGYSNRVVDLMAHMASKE
UniProt P20813: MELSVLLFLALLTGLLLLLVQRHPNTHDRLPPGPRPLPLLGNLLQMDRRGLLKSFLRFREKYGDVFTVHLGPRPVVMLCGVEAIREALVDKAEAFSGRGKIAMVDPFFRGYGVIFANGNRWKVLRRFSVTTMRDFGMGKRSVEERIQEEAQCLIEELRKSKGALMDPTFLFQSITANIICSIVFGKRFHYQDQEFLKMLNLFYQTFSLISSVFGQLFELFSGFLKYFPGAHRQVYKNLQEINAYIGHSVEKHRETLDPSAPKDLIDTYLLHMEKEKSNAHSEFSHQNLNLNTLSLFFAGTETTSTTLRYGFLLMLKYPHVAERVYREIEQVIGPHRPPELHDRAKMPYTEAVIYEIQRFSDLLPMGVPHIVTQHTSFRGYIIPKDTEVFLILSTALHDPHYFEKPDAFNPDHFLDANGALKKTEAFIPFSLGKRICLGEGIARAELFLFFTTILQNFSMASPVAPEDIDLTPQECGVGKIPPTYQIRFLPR

Legend:
[1] = STM_H9_OrnCyssISnorm_ratio: Stemina devTOX quickPredict H9 human embryonic stem cell (hESC)-based Assay for Ornithine (ORN):Cystine (CYSS) Ratio (AID 2283714)
Procedure, shortened: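 UPLC-HRMS of spent media: ORN/CYSS ratio of internal-standard-normalized percentages, DMSO (0.1%) baseline. Pluripotent H9 hESCs, 72h exposure, daily re-dosing with fresh media; last 24h media collected.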

[2] = read-out: xenobiotic metabolism (CYP2C9), CYP2C9 (gene 1559); experiment: CLD_CYP2C9_48hr: CellzDirect (CLD) Gene Expression Assay for xenobiotic metabolism (CYP1A2) at 48 hours (AID 2283701; active = hit-call score of the fitted dose curve at least 0.9, where 1 is the maximum; inactive = score below 0.9)
Procedure, shortened: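 mRNA level measured by quantitative nuclease protection (S1 digestion, chemiluminescent detection) in lysates of human primary hepatocytes exposed 48 h with daily re-dosing. Induction fitted positively versus 0.2% DMSO; morphology-based cytotoxicity flagged yes/no.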

[3] = CLD_ACTIN_48hr: CellzDirect (CLD) Gene Expression Assay for Baseline Control (Actin) at 48 hours (AID 2283702)
Procedure, shortened: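 Background-control actin mRNA read by qNPA chemiluminescence at 48 h. Human hepatocyte cultures from two donors received fresh multi-concentration chemical doses daily for two days; 0.2% DMSO served as vehicle baseline.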

[4] = read-out: Broad substrate specificity ATP-binding cassette transporter ABCG2 (Homo sapiens) (UniProt Q9UNQ0); experiment: CLD_ABCG2_48hr: CellzDirect (CLD) Gene Expression Assay for ABC Transporter (ABCG2) at 48 hours (AID 2283704);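 as to AC50: potency for induction of ABCG2 mRNA above the DMSO baseline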
Procedure, shortened: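 ABCG2 transcript measured at 48 h by quantitative nuclease protection (chemiluminescent) and fitted for increase relative to 0.2% DMSO. Hepatocyte cultures from separate donors got fresh compound daily over two days; morphology annotated cytotoxicity.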

[5] = read-out: organic anion transporter (SLCO1B1), SLCO1B1 (gene 10599); experiment: CLD_SLCO1B1_48hr: CellzDirect (CLD) Gene Expression Assay for organic anion transporter (SLCO1B1) at 48 hours (AID 2283707)
Procedure, shortened: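 SLCO1B1 transcript quantified by qNPA with chemiluminescent readout after 48 h of once-daily chemical exposure. Cultured human primary hepatocytes came from two donors, with 0.2% DMSO vehicle; positive-direction fitting against DMSO, cytotoxicity flagged by morphology.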

[6] = read-out: glucuronosyltransferase (UGT1A1), UGT1A1 (gene 54658); experiment: CLD_UGT1A1_48hr: CellzDirect (CLD) Gene Expression Assay for glucuronosyltransferase (UGT1A1) at 48 hours (AID 2283709);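 also: actives increase expression relative to DMSO so potency refers to induction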
Procedure, shortened: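 Quantitative nuclease protection assay (chemiluminescent) for UGT1A1 mRNA at 48 h in human hepatocyte cultures from two donors, redosed daily with fresh solutions. Induction fitted relative to 0.2% DMSO; phase-contrast morphology annotated cytotoxicity.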

[7] = read-out: Cytochrome P450 3A4 (Homo sapiens) (UniProt P08684); experiment: CLD_CYP3A4_48hr: CellzDirect (CLD) Gene Expression Assay for xenobiotic metabolism (CYP3A4) at 48 hours (AID 2283698)
Procedure, shortened: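 CYP3A4 induction read by qNPA chemiluminescence after 48 h, with fresh dosing solutions on consecutive days, in cultured human hepatocytes (two donors). Vehicle 0.2% DMSO as baseline; microscopy-based cytotoxicity annotated yes/no alongside data.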

[8] = read-out: xenobiotic metabolism (CYP1A1), CYP1A1 (gene 1543); experiment: CLD_CYP1A1_48hr: CellzDirect (CLD) Gene Expression Assay for xenobiotic metabolism (CYP1A1) at 48 hours (AID 2283705)
Procedure, shortened: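 CYP1A1 transcript measured by quantitative nuclease protection (chemiluminescent) 48 h after two daily treatments of human hepatocyte cultures, versus 0.2% DMSO. Morphology-based cytotoxicity flags accompany data; two donor preparations used.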

[9] = read-out: Glyceraldehyde-3-phosphate dehydrogenase (Homo sapiens) (UniProt P04406); experiment: CLD_GAPDH_48hr: CellzDirect (CLD) Gene Expression Assay for Baseline Control (Glyceraldehyde 3-phosphate dehydrogenase) at 48 hours (AID 2283706);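 as to outcome: active means higher GAPDH mRNA than DMSO vehicle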
Procedure, shortened: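 GAPDH baseline-control readout: qNPA chemiluminescent mRNA quantitation in human liver primary cells 48 h after daily dosing on two consecutive days, vehicle 0.2% DMSO; gain of signal fitted against DMSO, cytotoxicity flagged by phase-contrast morphology.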

[10] = read-out: sulfotransferase (SULT2A), SULT2A1 (gene 6822); experiment: CLD_SULT2A_48hr: CellzDirect (CLD) Gene Expression Assay for sulfotransferase (SULT2A) at 48 hours (AID 2283710);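 also: hits raise SULT2A1 transcript above the 0.2% DMSO vehicle baseline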
Procedure, shortened: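 SULT2A1 transcript measured by qNPA chemiluminescence in human primary hepatocyte cultures after 48 h, with fresh dosing solutions on two consecutive days; gain-of-signal fitting against 0.2% DMSO vehicle; cytotoxicity annotated from phase-contrast morphology.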

[11] = read-out: glucuronosyltransferase (UGT1A1), UGT1A1 (gene 54658); experiment: CLD_UGT1A1_24hr: CellzDirect (CLD) Gene Expression Assay for glucuronosyltransferase (UGT1A1) at 24 hours (AID 2283696)
Procedure, shortened: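 UGT1A1 transcript induction was measured by quantitative nuclease protection assay (chemiluminescence) in human hepatocyte cultures 24 h after daily fresh dosing, with 0.2% DMSO as vehicle and baseline.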

[12] = read-out: Cytochrome P450 2B6 (Homo sapiens) (UniProt P20813); experiment: CLD_CYP2B6_48hr: CellzDirect (CLD) Gene Expression Assay for xenobiotic metabolism (CYP2B6) at 48 hours (AID 2283699);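 also: actives raise transcript level above DMSO so potency reflects induction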
Procedure, shortened: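 CYP2B6 transcript induction, read by quantitative nuclease protection (S1 digestion, chemiluminescent detection) 48 h after dosing, is fitted upward against 0.2% DMSO. Cultured human liver primary cells, two donor preparations, received fresh chemical daily over multiple concentrations.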

Which AC50 [1] does the source give for `CCCCC(CC)COC(=O)c1ccc(N(C)C)cc1` (stereo not drawn) here?
Its AC50 is inconclusive: 50 µM.

For `CC(C)CC(C)(O)C#CC(C)(O)CC(C)C` (stereo not drawn), which AC50 [1] is on record?
Its AC50 is active: 63.2 µM.

What does the source list for `COC(=O)CSc1cc(N=c2sc(=O)n3n2CCCC3)c(F)cc1Cl`?
AC50 [2]: active: 9.13 µM; AC50 [3]: inconclusive: 20 µM; AC50 [4]: inconclusive: 20 µM; outcome [5]: inactive; AC50 [6]: active: 5.72 µM

With `CCc1cc(C2=C(C(=O)O)N(c3ccccc3C(F)(F)F)S(=O)(=O)c3ccccc32)cc2c1OCO2` as the compound, how does the outcome [1] read?
The outcome was “inactive”.

For `COCCOCCOC`, which outcome [1] is on record?
Its outcome is “inactive”.

Which outcome [1] does the source give for `Cc1nc(-c2ccccn2)ncc1C(=O)Nn1cc(C)c2cc(F)ccc21` here?
The outcome was “inactive”.

For `Oc1ccc(Cc2ccccc2O)cc1`, which AC50 [1] is on record?
The AC50 was inconclusive: 10 µM.

What does the source list for `CCSC(=O)N(CC(C)C)CC(C)C`?
outcome [7]: inactive; AC50 [4]: inconclusive: 20 µM; AC50 [8]: inconclusive: 20 µM; outcome [9]: inactive; outcome [5]: inactive; outcome [10]: inactive; outcome [1]: inactive

With `CC1=C(/C=C/C(C)=C/C=C/C(C)=C/CO)C(C)(C)CCC1` as the compound, how does the AC50 [1] read?
The AC50 was inconclusive: 5 µM.

Which results are given for `CCCCC(CC)CN1C(=O)C2C3C=CC(C3)C2C1=O` (stereo not drawn)?
AC50 [7]: active: 20 µM; AC50 [3]: inconclusive: 20 µM; AC50 [8]: active: 33.7 µM; AC50 [9]: inconclusive: 20 µM; AC50 [5]: inconclusive: 5.78 µM; AC50 [10]: active: 20 µM

For `COC(=O)c1ccc(I)cc1S(=O)(=O)NC(=O)Nc1nc(C)nc(OC)n1`, which outcome [11] is on record?
The outcome was “inactive”.

And the AC50 [7]?
Its AC50 is inconclusive: 1.89 µM.

And the AC50 [12]?
Its AC50 is inconclusive: 20 µM.

What about the outcome [3] of the same compound?
Its outcome is “inactive”.

And the AC50 [5]?
The AC50 was inconclusive: 37.5 µM.

What about the AC50 [1] of the same compound?
The AC50 was inconclusive: 50 µM.

For `Nc1nc2ncc(CNc3ccc(C(=O)N[C@@H](CCC(=O)O)C(=O)O)cc3)nc2c(=O)[nH]1`, which AC50 [1] is on record?
Its AC50 is inconclusive: 11.1 µM.

With `CN1C(=O)CC[C@H]1c1cccnc1` as the compound, how does the outcome [1] read?
The outcome was “inactive”.

Which AC50 [1] does the source give for `O=C(Oc1ccccc1)c1cccc(C(=O)Oc2ccccc2)c1` here?
The AC50 was inconclusive: 50 µM.

Which outcome [3] does the source give for `C=CCOC(Cn1ccnc1)c1ccc(Cl)cc1Cl` (stereo not drawn) here?
The outcome was “inactive”.

And the AC50 [4]?
Its AC50 is active: 34.9 µM.

What about the AC50 [8] of the same compound?
Its AC50 is active: 3.84 µM.

What about the AC50 [5] of the same compound?
Its AC50 is inconclusive: 8.84 µM.

And the AC50 [10]?
The AC50 was inconclusive: 20 µM.

What about the AC50 [1] of the same compound?
The AC50 was inconclusive: 2.51 µM.

What does the source list for `CCNc1nc(N)nc(Cl)n1`?
outcome [12]: inactive; outcome [3]: inactive; outcome [9]: inactive; outcome [5]: inactive

Which outcome [1] does the source give for `CCN(CC)CCOC(=O)c1ccc(N)cc1` here?
The outcome was “inactive”.

For `CCOC(=O)C(C)Oc1ccc(Oc2nc3ccc(Cl)cc3o2)cc1` (stereo not drawn), which AC50 [7] is on record?
Its AC50 is inconclusive: 1.9 µM.

What about the outcome [12] of the same compound?
The outcome was “inactive”.

And the outcome [3]?
Its outcome is “inactive”.

And the outcome [4]?
Its outcome is “inactive”.

What about the outcome [8] of the same compound?
The outcome was “inactive”.

And the outcome [9]?
Its outcome is “inactive”.

What about the AC50 [5] of the same compound?
The AC50 was inconclusive: 0.00382 µM.

What about the outcome [10] of the same compound?
Its outcome is “inactive”.

Which AC50 [1] does the source give for `CN1CCC[C@H]1c1cccnc1` here?
Its AC50 is inconclusive: 50 µM.

Which AC50 [1] does the source give for `NC(=O)NO` here?
The AC50 was active: 392 µM.

For `O=C(Nc1ccc([N+](=O)[O-])cc1Cl)c1cc(Cl)ccc1O`, which AC50 [11] is on record?
Its AC50 is inconclusive: 20 µM.

What about the AC50 [12] of the same compound?
The AC50 was inconclusive: 1.88 µM.

What about the AC50 [3] of the same compound?
Its AC50 is inconclusive: 0.45 µM.

What about the AC50 [4] of the same compound?
Its AC50 is inconclusive: 5.15 µM.

And the AC50 [9]?
Its AC50 is inconclusive: 6.73 µM.

What about the AC50 [5] of the same compound?
Its AC50 is inconclusive: 4.16 µM.

What about the AC50 [10] of the same compound?
The AC50 was inconclusive: 0.0004 µM.

For `COC(=O)c1ccccc1S(=O)(=O)NC(=O)Nc1nc(OC(F)F)cc(OC(F)F)n1`, which AC50 [7] is on record?
The AC50 was inconclusive: 0.0004 µM.

What about the AC50 [4] of the same compound?
Its AC50 is inconclusive: 0.354 µM.

What about the AC50 [9] of the same compound?
Its AC50 is inconclusive: 20 µM.

What about the outcome [5] of the same compound?
Its outcome is “inactive”.

What about the AC50 [10] of the same compound?
Its AC50 is inconclusive: 1.88 µM.

For `CCC(C)OC(=O)N1CCCCC1CCO` (stereo not drawn), which outcome [11] is on record?
The outcome was “inactive”.

What about the outcome [3] of the same compound?
The outcome was “inactive”.

What about the outcome [4] of the same compound?
The outcome was “inactive”.

What does the source list for `C#CCOC(=O)[C@@H](C)Oc1ccc(Oc2ncc(Cl)cc2F)cc1`?
outcome [7]: inactive; outcome [4]: inactive; AC50 [8]: inconclusive: 20 µM; AC50 [1]: active: 86.9 µM

With `CCN(CC)C(=O)c1cccc(C)c1` as the compound, how does the AC50 [12] read?
The AC50 was active: 3.6 µM.

What about the AC50 [3] of the same compound?
Its AC50 is inconclusive: 20 µM.

What about the AC50 [4] of the same compound?
Its AC50 is inconclusive: 20 µM.

And the AC50 [8]?
Its AC50 is inconclusive: 1.89 µM.

And the AC50 [5]?
Its AC50 is inconclusive: 20 µM.

What does the source list for `COC(=O)c1ccc(CNS(C)(=O)=O)cc1S(=O)(=O)NC(=O)Nc1nc(OC)cc(OC)n1`?
AC50 [7]: inconclusive: 20 µM; AC50 [12]: inconclusive: 0.207 µM; AC50 [4]: inconclusive: 3.97 µM; AC50 [5]: inconclusive: 20 µM
